These are yes or no findings as the source states them, for the method shown. Some results given as binding are weak or reduced against the parent protein; the word gives no strength. Sequences can lack the tags named with a protein.
Target: PlexinD1 (PLXND1) (mouse (endogenous in GN11 cells and E14.5 mouse brain)) (UniProt Q3UH93)
Test: AP-binding assay; conditioned medium of COS-7 cells transfected with AP-SEMA3E put on methanol-fixed GN11 cells for 2 h at RT in PBS/MgCl2 after blocking with 10% FBS; endogenous AP heat-inactivated (65 °C, 3 h); bound AP detected with NBT/BCIP

Protein sequences, listed by entry. Tags and fused reporters are not part of them. Residues count along the entry.
UniProt Q3UH93, residues 49-1925: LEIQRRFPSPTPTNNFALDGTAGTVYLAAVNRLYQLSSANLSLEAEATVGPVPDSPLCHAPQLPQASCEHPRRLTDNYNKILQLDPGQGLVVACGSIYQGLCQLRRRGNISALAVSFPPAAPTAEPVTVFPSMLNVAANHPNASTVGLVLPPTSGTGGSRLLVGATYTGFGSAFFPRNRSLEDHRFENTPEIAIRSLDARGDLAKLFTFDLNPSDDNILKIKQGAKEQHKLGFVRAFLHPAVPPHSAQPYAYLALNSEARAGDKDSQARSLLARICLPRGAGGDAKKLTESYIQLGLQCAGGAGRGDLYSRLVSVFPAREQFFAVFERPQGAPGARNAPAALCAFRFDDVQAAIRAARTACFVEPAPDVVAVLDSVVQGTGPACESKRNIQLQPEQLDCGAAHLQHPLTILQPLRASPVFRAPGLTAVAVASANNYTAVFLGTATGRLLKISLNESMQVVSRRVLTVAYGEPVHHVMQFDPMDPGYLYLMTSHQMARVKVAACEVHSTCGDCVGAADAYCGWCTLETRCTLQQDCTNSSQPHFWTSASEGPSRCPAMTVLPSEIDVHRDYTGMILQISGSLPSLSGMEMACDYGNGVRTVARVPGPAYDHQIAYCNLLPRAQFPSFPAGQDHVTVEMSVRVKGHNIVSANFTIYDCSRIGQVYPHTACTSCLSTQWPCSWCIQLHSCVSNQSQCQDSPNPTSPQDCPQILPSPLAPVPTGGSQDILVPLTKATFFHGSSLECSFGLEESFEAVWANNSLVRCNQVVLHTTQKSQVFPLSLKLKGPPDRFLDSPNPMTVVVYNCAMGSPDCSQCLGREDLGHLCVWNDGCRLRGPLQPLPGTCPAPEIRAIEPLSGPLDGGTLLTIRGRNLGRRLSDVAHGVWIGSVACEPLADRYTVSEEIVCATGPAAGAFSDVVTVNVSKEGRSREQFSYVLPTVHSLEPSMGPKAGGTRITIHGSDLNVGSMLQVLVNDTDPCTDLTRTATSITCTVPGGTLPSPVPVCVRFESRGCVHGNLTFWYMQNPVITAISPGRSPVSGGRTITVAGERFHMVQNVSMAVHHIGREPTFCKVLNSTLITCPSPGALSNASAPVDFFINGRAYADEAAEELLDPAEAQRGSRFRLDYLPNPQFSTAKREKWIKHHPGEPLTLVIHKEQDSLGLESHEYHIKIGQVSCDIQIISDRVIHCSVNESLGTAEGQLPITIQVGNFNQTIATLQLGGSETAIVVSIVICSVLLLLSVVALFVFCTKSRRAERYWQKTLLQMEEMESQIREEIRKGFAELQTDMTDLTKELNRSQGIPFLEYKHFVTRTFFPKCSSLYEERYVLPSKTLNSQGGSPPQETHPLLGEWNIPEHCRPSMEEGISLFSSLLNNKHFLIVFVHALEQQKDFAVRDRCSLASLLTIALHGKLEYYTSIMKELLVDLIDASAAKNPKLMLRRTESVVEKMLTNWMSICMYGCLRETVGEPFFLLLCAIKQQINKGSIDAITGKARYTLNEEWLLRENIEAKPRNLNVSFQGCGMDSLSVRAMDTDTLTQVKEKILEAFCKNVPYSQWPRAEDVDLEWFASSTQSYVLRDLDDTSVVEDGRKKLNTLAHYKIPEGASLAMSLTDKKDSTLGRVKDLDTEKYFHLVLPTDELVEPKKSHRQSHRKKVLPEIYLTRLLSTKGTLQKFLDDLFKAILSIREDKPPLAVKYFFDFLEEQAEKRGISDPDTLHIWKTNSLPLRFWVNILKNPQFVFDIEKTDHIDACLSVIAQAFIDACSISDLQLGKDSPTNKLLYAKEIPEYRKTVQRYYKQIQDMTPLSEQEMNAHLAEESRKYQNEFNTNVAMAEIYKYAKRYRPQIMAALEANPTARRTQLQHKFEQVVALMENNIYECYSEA

- binding: binds
B1: Alkaline Phosphatase (AP)-tagged human SEMA3E, wild type (ligand, UniProt O15041-1 26-775)
chain: ADTTHPRLRLSHKELLNLNRTSIFHSPFGFLDLHTMLLDEYQERLFVGGRDLVYSLSLERISDGYKEIHWPSTALKMEECIMKGKDAGECANYVRVLHHYNRTHLLTCGTGAFDPVCAFIRVGYHLEDPLFHLESPRSERGRGRCPFDPSSSFISTLIGSELFAGLYSDYWSRDAAIFRSMGRLAHIRTEHDDERLLKEPKFVGSYMIPDNEDRDDNKVYFFFTEKALEAENNAHAIYTRVGRLCVNDVGGQRILVNKWSTFLKARLVCSVPGMNGIDTYFDELEDVFLLPTRDHKNPVIFGLFNTTSNIFRGHAICVYHMSSIRAAFNGPYAHKEGPEYHWSVYEGKVPYPRPGSCASKVNGGRYGTTKDYPDDAIRFARSHPLMYQAIKPAHKKPILVKTDGKYNLKQIAVDRVEAEDGQYDVLFIGTDNGIVLKVITIYNQEMESMEEVILEELQIFKDPVPIISMEISSKRQQLYIGSASAVAQVRFHHCDMYGSACADCCLARDPYCAWDGISCSRYYPTGTHAKRRFRRQDVRHGNAAQQCFGQQFVGDALDKTEEHLAYGIENNSTLLECTPRSLQAKVIWFVQKGRETRKEEVKTDDRVVKMDLGLLFLRLHKSDAGTYFCQTVEHSFVHTVRKITLEVVEEEKVEDMFNKDDEEDRHHRMPCPAQSSISQGAKPWYKEFLQLIGYSNFQRVEEYCEKVWCTDRKRKKLKMSPSKWKYANPQEKKLRSKPEHYRLPRHTLDS
